# Reference: the supplement of paper PMC10849652
# Chains of the proteins cited; added tags and fusions are not shown. Lines headed by an entry give the natural chain unless they say otherwise; changes in a name come on top.
# UniProt Q9Y2V7: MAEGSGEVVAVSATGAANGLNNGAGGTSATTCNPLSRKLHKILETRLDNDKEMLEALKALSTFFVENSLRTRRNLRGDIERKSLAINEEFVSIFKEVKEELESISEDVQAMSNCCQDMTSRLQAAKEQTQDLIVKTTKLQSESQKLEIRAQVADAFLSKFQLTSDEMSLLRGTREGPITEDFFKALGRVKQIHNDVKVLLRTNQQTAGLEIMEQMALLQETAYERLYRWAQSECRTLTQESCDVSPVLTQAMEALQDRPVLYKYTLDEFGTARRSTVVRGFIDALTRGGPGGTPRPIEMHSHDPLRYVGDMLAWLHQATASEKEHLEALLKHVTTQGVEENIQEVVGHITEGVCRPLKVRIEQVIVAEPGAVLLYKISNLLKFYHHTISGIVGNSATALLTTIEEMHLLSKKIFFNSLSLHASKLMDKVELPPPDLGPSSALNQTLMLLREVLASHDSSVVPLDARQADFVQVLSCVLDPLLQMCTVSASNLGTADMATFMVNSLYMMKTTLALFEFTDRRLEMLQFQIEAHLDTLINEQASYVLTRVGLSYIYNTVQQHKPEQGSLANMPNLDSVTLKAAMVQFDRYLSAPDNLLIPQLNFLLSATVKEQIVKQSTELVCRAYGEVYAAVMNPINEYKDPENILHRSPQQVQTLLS
# UniProt P51801: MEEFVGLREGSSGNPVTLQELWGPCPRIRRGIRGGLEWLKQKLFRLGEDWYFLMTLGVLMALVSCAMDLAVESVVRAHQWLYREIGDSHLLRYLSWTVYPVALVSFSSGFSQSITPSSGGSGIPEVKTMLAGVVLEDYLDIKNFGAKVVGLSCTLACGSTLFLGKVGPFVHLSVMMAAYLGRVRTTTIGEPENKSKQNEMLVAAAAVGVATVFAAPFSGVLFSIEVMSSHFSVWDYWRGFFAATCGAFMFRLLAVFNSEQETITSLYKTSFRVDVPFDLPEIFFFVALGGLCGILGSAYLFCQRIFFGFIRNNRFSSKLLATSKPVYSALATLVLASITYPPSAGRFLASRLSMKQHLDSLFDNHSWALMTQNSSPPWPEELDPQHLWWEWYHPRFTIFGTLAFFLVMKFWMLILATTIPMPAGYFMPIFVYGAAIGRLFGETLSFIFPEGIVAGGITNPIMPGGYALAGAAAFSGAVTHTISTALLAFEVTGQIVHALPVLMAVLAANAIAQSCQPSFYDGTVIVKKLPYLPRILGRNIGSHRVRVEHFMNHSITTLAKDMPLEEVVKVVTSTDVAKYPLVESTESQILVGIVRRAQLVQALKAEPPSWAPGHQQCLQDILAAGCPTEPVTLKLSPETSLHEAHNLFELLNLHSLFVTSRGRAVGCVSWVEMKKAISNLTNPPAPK
# UniProt P56277: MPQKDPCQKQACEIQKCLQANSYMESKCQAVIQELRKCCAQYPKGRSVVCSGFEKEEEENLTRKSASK
# UniProt Q9ULM6, whole entry, looked up: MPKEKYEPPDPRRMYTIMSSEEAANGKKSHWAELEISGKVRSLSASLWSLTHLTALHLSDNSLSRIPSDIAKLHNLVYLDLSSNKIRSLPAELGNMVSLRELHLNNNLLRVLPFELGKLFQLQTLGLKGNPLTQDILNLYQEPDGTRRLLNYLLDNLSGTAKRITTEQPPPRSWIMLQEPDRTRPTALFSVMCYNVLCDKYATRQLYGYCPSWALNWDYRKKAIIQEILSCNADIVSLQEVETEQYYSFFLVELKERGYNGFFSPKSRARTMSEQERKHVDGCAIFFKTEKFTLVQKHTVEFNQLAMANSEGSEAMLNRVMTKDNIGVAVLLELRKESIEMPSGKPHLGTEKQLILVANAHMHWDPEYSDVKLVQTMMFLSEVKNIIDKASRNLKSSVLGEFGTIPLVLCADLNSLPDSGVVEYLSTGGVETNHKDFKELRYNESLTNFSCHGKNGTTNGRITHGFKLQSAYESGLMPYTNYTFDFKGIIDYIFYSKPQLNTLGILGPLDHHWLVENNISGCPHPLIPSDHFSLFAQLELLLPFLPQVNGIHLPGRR
# UniProt Q13286: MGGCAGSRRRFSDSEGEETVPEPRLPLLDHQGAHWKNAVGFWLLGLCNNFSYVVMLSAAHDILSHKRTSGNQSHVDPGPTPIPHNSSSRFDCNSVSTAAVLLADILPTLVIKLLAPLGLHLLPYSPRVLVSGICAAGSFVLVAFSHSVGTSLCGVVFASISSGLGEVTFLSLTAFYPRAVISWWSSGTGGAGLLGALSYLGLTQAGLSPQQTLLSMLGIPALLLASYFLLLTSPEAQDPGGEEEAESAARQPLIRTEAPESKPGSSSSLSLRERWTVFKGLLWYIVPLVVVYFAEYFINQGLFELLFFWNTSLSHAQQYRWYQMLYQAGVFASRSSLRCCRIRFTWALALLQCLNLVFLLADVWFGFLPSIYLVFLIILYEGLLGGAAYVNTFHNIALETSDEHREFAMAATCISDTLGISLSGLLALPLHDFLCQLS
# UniProt Q8N2M8: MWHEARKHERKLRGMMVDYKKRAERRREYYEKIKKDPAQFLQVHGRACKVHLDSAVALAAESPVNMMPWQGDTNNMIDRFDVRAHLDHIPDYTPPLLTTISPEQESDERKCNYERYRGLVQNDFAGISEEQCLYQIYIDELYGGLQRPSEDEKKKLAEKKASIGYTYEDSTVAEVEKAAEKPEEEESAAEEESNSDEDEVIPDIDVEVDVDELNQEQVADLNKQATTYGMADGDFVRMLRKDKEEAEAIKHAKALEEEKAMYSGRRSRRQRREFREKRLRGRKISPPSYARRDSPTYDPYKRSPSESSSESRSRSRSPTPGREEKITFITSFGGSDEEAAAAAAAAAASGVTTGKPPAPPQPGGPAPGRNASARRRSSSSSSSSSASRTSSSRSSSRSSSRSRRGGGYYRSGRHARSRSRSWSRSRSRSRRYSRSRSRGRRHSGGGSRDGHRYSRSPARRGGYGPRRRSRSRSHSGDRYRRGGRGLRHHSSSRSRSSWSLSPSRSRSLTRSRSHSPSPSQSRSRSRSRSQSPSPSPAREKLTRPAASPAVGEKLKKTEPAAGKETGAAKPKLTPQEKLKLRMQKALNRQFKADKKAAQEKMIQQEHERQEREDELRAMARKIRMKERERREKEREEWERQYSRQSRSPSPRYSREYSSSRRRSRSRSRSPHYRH
# UniProt P62633: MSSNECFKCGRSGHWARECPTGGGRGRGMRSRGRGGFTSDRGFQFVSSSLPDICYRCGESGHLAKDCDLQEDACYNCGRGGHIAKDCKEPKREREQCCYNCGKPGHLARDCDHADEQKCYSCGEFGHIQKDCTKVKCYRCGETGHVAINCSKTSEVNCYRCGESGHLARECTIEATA
# UniProt P51788: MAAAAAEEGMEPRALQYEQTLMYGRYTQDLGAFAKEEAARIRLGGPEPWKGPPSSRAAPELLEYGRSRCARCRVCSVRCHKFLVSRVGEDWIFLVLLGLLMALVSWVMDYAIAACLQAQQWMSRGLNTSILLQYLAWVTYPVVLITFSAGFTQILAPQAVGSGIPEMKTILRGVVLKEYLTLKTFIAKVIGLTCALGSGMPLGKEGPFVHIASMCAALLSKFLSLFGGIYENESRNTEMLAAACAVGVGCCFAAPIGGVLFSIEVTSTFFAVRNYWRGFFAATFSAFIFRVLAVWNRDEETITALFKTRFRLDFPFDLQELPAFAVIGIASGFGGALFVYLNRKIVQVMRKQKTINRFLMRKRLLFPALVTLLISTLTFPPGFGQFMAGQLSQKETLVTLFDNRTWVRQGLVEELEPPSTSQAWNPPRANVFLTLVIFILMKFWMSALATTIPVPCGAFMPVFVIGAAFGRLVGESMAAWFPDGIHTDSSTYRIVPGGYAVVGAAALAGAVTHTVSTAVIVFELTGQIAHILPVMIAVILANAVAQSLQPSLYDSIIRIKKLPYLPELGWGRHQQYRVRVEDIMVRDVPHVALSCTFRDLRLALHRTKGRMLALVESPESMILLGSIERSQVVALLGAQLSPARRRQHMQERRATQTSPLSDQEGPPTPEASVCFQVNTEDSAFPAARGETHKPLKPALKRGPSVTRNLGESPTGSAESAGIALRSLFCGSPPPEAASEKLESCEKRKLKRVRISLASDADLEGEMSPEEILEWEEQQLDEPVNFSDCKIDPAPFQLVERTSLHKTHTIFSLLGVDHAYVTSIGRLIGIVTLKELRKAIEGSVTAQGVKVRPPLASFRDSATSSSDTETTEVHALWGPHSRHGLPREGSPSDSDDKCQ
# UniProt Q96JB2: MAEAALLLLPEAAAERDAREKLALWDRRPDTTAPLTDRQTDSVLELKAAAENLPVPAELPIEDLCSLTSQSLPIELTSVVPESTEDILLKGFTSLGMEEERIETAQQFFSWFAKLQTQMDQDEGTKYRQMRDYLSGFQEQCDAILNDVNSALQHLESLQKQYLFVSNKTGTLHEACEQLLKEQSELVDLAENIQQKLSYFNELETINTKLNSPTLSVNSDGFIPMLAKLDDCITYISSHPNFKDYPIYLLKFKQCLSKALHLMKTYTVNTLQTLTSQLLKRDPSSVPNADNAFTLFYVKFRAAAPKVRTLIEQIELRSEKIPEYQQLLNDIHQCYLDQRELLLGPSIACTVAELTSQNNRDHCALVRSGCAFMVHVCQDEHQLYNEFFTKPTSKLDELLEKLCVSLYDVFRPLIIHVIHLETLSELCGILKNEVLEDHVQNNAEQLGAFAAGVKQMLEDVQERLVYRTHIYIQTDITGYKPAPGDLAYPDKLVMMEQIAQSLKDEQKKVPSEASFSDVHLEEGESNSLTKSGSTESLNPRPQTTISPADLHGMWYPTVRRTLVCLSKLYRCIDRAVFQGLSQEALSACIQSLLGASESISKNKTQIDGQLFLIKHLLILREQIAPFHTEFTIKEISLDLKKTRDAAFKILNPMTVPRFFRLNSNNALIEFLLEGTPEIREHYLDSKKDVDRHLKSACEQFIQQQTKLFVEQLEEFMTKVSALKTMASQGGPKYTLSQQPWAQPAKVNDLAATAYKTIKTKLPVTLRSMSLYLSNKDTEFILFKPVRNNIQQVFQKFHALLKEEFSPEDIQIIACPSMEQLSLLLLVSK
# UniProt O75503: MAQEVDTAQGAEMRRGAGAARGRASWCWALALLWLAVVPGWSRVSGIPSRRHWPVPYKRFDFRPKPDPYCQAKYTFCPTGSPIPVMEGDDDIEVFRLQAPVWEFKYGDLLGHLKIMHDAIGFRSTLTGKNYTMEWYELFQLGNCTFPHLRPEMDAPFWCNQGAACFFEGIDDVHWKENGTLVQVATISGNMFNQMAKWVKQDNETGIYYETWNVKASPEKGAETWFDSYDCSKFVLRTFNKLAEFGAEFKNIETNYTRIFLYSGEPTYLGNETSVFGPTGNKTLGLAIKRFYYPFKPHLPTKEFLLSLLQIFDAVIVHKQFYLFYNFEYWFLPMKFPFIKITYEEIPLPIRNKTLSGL
# UniProt Q8WWK9: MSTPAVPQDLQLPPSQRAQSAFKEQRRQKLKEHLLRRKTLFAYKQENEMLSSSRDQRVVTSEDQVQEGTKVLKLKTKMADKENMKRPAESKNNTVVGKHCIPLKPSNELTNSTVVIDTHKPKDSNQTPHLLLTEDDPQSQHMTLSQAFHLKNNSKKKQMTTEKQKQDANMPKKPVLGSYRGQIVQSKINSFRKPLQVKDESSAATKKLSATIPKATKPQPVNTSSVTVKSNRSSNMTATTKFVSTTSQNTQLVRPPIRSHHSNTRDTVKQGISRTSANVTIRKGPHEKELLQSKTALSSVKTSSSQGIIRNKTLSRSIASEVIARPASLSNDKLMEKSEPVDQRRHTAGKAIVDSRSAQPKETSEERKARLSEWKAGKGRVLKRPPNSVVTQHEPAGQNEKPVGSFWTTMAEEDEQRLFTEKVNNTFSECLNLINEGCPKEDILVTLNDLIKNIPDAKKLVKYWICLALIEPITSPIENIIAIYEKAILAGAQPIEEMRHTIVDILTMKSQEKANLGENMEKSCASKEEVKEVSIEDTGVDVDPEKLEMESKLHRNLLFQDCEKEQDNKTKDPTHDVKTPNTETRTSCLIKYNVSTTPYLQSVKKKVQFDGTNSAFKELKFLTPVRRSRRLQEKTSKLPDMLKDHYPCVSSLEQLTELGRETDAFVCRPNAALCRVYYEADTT
# UniProt O95628: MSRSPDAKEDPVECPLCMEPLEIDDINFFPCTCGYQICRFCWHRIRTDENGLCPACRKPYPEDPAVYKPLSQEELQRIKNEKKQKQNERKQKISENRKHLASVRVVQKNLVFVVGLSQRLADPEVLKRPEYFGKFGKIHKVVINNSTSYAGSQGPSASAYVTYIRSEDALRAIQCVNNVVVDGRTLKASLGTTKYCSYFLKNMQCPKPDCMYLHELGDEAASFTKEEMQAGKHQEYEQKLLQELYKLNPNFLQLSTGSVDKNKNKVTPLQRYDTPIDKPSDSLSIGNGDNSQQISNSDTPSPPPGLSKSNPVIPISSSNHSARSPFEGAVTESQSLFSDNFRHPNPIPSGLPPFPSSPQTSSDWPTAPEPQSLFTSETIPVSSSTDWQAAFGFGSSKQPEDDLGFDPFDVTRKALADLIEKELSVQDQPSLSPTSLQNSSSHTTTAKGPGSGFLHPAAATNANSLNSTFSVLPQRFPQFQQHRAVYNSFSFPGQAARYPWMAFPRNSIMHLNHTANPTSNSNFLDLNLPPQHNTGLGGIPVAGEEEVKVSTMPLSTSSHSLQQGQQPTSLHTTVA
# This is one part of the list. Residues, ends and D or L forms follow the SMILES beside them. *: point of attachment. Cbz = O=C(OCc1ccccc1)*
# How the values were obtained:
# Assay in all cases: log2 fold change, soluble protein after heating vs DMSO (PISA); higher = thermal stabilisation; K562 cells, 10 uM, 30 min; active = over 0.2 and 3.5 SD of the protein, either way, in both replicates (recomputed)
# erlotinib = compound: C#Cc1cccc(Nc2ncnc3cc(OCCOC)c(OCCOC)cc23)c1 [erlotinib]
# How it was run: (§1)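 Soluble protein was quantified by TMTpro 16plex LC-MS/MS after channel sums were equalised. It was obtained as the supernatant after 21,000xg for 90 min from pooled aliquots of K562 cells (2×10^6 cells/mL, 10 μM compound, 30 min) heated for 3 min across 48°C-58°C and extracted in PBS with 0.5% NP-40 at 4°C. Thermal stability values are relative to control samples and come from duplicates. They are given as log2 fold changes.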
# [1] = compound: C/C(=N\NC(=O)C1=CC(=CC=C1)S(=O)(=O)N2CCOCC2)/C3=C(C=CC(=C3)Cl)O
# How it was run: as §1
# [2] = compound: C1=CC(=CC=C1C2=NC3=C(N2)C=C(C=C3)C(=O)N)OC4=CC=C(C=C4)Cl
# How it was run: as §1
# [3] = compound: C1=CC2=C(C=CC(=C2)/C=C\3/C(=O)NC(=NCC4=CC=CS4)S3)N=C1
# How it was run: as §1
# [4] = compound: C1=CC=C(C=C1)C2=NC(=C(N2)C3=CC=NC=C3)C4=CC(=C(C=C4)Cl)O
# How it was run: as §1
# [5] = compound: C1=CC=C2C(=C1)C3=NNC4=CC=CC(=C43)C2=O
# How it was run: as §1
# [6] = compound: C1CCN(C1)C(=O)NC2=CC=CC(=C2)NC3=NC=C(C(=N3)NCCC4=CN=CN4)Br
# How it was run: as §1
# [7] = compound: C1CN(CCC1(CC2=CC=C(C=C2)Cl)N)C3=NC=NC4=C3C=CN4
# How it was run: as §1
# [8] = compound: CC(=O)c1cnc2ccc(-c3cc(Cl)c(O)c(Cl)c3)nc2c1N[C@H]1CC[C@H](CN(C)C)CC1
# How it was run: as §1
# ralimetinib = compound: CC(C)(C)Cn1c(N)nc2ccc(-c3[nH]c(C(C)(C)C)nc3-c3ccc(F)cc3)nc21 [ralimetinib]
# How it was run: as §1
# [9] = compound: CC(C)C1=C2N=C(C=C(N2N=C1)NCC3=CC=CC=C3)NCCCCCCN
# How it was run: as §1
# [10] = compound: CC(C)C[C@@H](C=O)NC(=O)[C@H](CC(C)C)NC(=O)[C@H](CC(C)C)NC(=O)OCc1ccccc1
# How it was run: as §1
# [11] = compound: CC1=C(C2=C(C=C1)C(=O)C3=CC=CC=C3N2CCCN)C
# How it was run: as §1
# [12] = compound: C1=CC(=C(C=C1Cl)C2=NC3=NC=CN=C3C(=N2)NC4=CC=NC=C4)F
# How it was run: as §1
# IRAK-1-4 Inhibitor I = compound: C1COCCN1CCN2C3=CC=CC=C3N=C2NC(=O)C4=CC(=CC=C4)[N+](=O)[O-] [IRAK-1-4 Inhibitor I]
# How it was run: as §1
# [13] = compound: CC(C)(O)CC(=O)NCCn1ccc2ncnc(Nc3ccc(Oc4cccc(C(F)(F)F)c4)c(Cl)c3)c21
# How it was run: as §1
# pinometostat = compound: CC(C)N(C[C@H]1O[C@@H](n2cnc3c(N)ncnc32)[C@H](O)[C@@H]1O)[C@H]1C[C@@H](CCc2nc3cc(C(C)(C)C)ccc3[nH]2)C1 [pinometostat]
# How it was run: as §1
# [14] = compound: CC1=C(C(CC(=O)N1)C2=CC=C(C=C2)C(F)(F)F)C(=O)NC3=C(C=C4C(=C3)C=NN4)F
# How it was run: as §1
# [15] = compound: C1=CC2=NC=CN=C2C=C1/C=C/3\C(=O)NC(=O)S3
# How it was run: as §1
# ibrutinib = compound: C=CC(=O)N1CCC[C@@H](n2nc(-c3ccc(Oc4ccccc4)cc3)c3c(N)ncnc32)C1 [ibrutinib]
# How it was run: as §1
Target,log2 fold change (erlotinib),log2 fold change [1],log2 fold change [2],log2 fold change [3],log2 fold change [4],log2 fold change [5],log2 fold change [6],log2 fold change [7],log2 fold change [8],log2 fold change (ralimetinib),log2 fold change [9],log2 fold change [10],log2 fold change [11],log2 fold change [12],log2 fold change (IRAK-1-4 Inhibitor I),log2 fold change [13],log2 fold change (pinometostat),log2 fold change [14],log2 fold change [15],log2 fold change (ibrutinib)
COG6 (UniProt Q9Y2V7),inactive: 0.045,inactive: -0.033,inactive: -0.034,inactive: 0.174,inactive: -0.179,inactive: -0.007,inactive: -0.243,inactive: -0.282,inactive: 0.126,inactive: 0.037,inactive: -0.211,inactive: -0.162,inactive: 0,–,–,–,–,–,–,–
CLCNKB (UniProt P51801),inactive: 0.014,inactive: 0.014,inactive: -0.02,inactive: -0.079,–,inactive: -0.19,–,–,inactive: -0.021,–,inactive: -0.042,–,–,inactive: 0.267,inactive: -0.002,inactive: -0.122,inactive: 0.034,inactive: 0.071,–,–
CMC4 (UniProt P56277),inactive: 0.139,inactive: 0.048,inactive: -0.106,inactive: 0.122,inactive: 0.067,inactive: 0.043,–,–,inactive: -0.098,inactive: 0.024,inactive: 0.037,inactive: -0.055,–,–,inactive: -0.083,–,inactive: -0.058,–,–,–
CNOT6 (UniProt Q9ULM6),inactive: 0.012,inactive: -0.019,inactive: -0.157,inactive: -0.089,inactive: -0.169,inactive: 0.055,–,–,inactive: 0.018,inactive: -0.055,inactive: -0.202,inactive: 0.18,–,–,–,–,–,inactive: -0.064,inactive: -0.2,inactive: -0.04
CLN3 (UniProt Q13286),inactive: 0,–,inactive: 0.162,–,inactive: -0.05,–,inactive: 0.055,inactive: 0.026,–,inactive: -0.05,active: -0.532,inactive: -0.043,inactive: -0.147,inactive: 0.025,inactive: 0.106,inactive: -0.011,inactive: -0.113,–,inactive: 0.117,–
CLASRP (UniProt Q8N2M8),inactive: 0.034,inactive: 0.093,inactive: 0.079,inactive: 0.253,–,inactive: -0.092,–,–,inactive: -0.105,–,inactive: -0.114,–,–,inactive: -0.006,inactive: 0.027,inactive: 0.045,inactive: 0.035,inactive: 0.149,inactive: 0.054,–
CNBP (UniProt P62633),inactive: 0.132,inactive: -0.071,inactive: -0.108,inactive: -0.227,–,inactive: -0.079,–,–,inactive: -0.009,–,inactive: -0.102,–,–,–,–,–,–,inactive: 0.024,inactive: 0.005,inactive: 0.068
CNPY4 (UniProt Q8N129),inactive: 0.02,inactive: 0.004,inactive: 0.001,inactive: -0.081,inactive: -0.036,inactive: 0.086,inactive: -0.061,inactive: 0.101,inactive: -0.07,inactive: -0.058,inactive: 0.059,inactive: -0.098,inactive: -0.065,–,–,–,–,inactive: -0.041,inactive: 0.087,inactive: 0.027
CLCN6 isoform 5 (UniProt P51797),inactive: 0.065,inactive: 0.009,inactive: 0.152,inactive: -0.047,inactive: 0.074,inactive: 0.056,–,–,inactive: 0.062,inactive: -0.016,inactive: -0.159,inactive: 0.065,–,inactive: -0.224,inactive: -0.001,inactive: 0.016,inactive: -0.026,inactive: 0.063,inactive: 0.01,–
CLCN2 (UniProt P51788),inactive: 0.017,inactive: 0.117,inactive: 0.029,inactive: 0.026,inactive: 0.071,inactive: -0.076,–,–,inactive: -0.078,inactive: 0.014,inactive: -0.128,inactive: 0.003,–,inactive: -0.092,inactive: -0.047,inactive: 0.076,inactive: -0.035,inactive: -0.069,inactive: -0.041,–
COG3 (UniProt Q96JB2),inactive: -0.07,–,inactive: -0.487,–,inactive: -0.078,–,–,–,–,inactive: 0.14,inactive: -0.502,inactive: 0.047,–,inactive: -0.028,inactive: -0.054,inactive: -0.016,inactive: 0.009,–,inactive: -0.029,inactive: 0
CLIP1 isoform 2 (UniProt P30622),inactive: -0.117,–,inactive: 0.156,–,inactive: -0.045,–,–,–,–,inactive: 0.016,inactive: -0.017,inactive: 0.072,–,inactive: 0.057,–,inactive: 0.041,–,inactive: -0.004,inactive: 0.058,–
CNEP1R1 isoform 2 (UniProt Q8N9A8),inactive: 0.082,inactive: 0.029,inactive: 0.075,inactive: -0.015,–,inactive: 0.219,inactive: -0.307,inactive: 0.02,inactive: -0.117,–,inactive: -0.005,–,inactive: 0.283,–,–,–,–,–,–,–
CNOT8 (UniProt Q9UFF9),inactive: 0.007,–,inactive: -0.036,–,inactive: 0.008,–,inactive: 0.029,inactive: 0.155,–,inactive: -0.004,inactive: -0.059,inactive: -0.019,inactive: -0.076,inactive: -0.134,inactive: -0.015,inactive: -0.043,inactive: 0.105,inactive: 0.017,inactive: 0.083,inactive: 0.043
CNNM2 (UniProt Q9H8M5),inactive: 0.067,–,inactive: -0.004,–,inactive: -0.062,–,inactive: -0.061,inactive: -0.112,–,inactive: 0.072,inactive: 0.118,inactive: -0.117,inactive: 0.177,inactive: 0.022,inactive: -0.034,inactive: -0.099,inactive: 0.015,inactive: -0.087,inactive: 0.033,inactive: 0.107
CNRIP1 (UniProt Q96F85),inactive: -0.065,–,inactive: 0.045,–,inactive: -0.115,–,–,–,–,inactive: -0.051,inactive: 0.034,inactive: 0.116,–,inactive: 0.045,–,inactive: -0.255,–,–,–,–
COG2 (UniProt Q14746),inactive: -0.082,inactive: -0.367,inactive: -0.026,inactive: 0.478,inactive: -0.223,inactive: -0.137,inactive: 0.257,inactive: -0.065,inactive: -0.042,inactive: 0.099,inactive: -0.009,inactive: 0.18,inactive: -0.108,inactive: 0.012,inactive: -0.232,inactive: -0.317,inactive: -0.043,–,–,–
CLN5 (UniProt O75503),inactive: 0.146,inactive: -0.049,inactive: 0.103,inactive: 0.023,–,inactive: 0.15,inactive: -0.02,inactive: -0.285,inactive: -0.03,–,inactive: -0.62,–,inactive: -0.028,inactive: 0.063,inactive: 0.023,inactive: 0.001,inactive: -0.062,–,inactive: 0.016,–
CKAP2 (UniProt Q8WWK9),inactive: -0.024,–,inactive: 0.09,–,inactive: -0.119,–,inactive: 0.023,inactive: -0.009,–,inactive: 0.36,inactive: -0.549,inactive: 0.075,inactive: 0.008,inactive: -0.558,inactive: -0.272,inactive: 0.038,inactive: 0.234,inactive: 0.029,–,–
CNOT4 isoform 9 (UniProt O95628),inactive: -0.011,inactive: -0.022,inactive: 0.047,inactive: 0.089,inactive: 0.053,inactive: 0.245,inactive: 0.175,inactive: 0.455,inactive: 0.189,inactive: 0.128,inactive: -0.068,inactive: 0.015,inactive: 0.202,–,inactive: 0.09,–,inactive: -0.028,–,inactive: 0.018,inactive: 0.089

# Single records (already shown). Order of values: log2 fold change (erlotinib) | log2 fold change [1] | log2 fold change [2] | log2 fold change [3] | log2 fold change [4] | log2 fold change [5] | log2 fold change [6] | log2 fold change [7] | log2 fold change [8] | log2 fold change (ralimetinib) | log2 fold change [9] | log2 fold change [10] | log2 fold change [11] | log2 fold change [12] | log2 fold change (IRAK-1-4 Inhibitor I) | log2 fold change [13] | log2 fold change (pinometostat) | log2 fold change [14] | log2 fold change [15] | log2 fold change (ibrutinib)
# CLCNKB (UniProt P51801) as listed: inactive: 0.014 | inactive: 0.014 | inactive: -0.02 | inactive: -0.079 | – | inactive: -0.19 | – | – | inactive: -0.021 | – | inactive: -0.042 | – | – | inactive: 0.267 | inactive: -0.002 | inactive: -0.122 | inactive: 0.034 | inactive: 0.071 | – | –
# CLCN2 (UniProt P51788) as listed: inactive: 0.017 | inactive: 0.117 | inactive: 0.029 | inactive: 0.026 | inactive: 0.071 | inactive: -0.076 | – | – | inactive: -0.078 | inactive: 0.014 | inactive: -0.128 | inactive: 0.003 | – | inactive: -0.092 | inactive: -0.047 | inactive: 0.076 | inactive: -0.035 | inactive: -0.069 | inactive: -0.041 | –
